Reference: publication PMC11222159
Results are given in words; binding and its absence hold for the method and conditions named. Binding seen in cells or lysates may run through a third protein. Some entries that bind do so weakly or less than the wild type.

The chains behind the UniProt entries cited, without tags or fusion partners. Residues count along the entry.
UniProt Q14416, residues 19-872: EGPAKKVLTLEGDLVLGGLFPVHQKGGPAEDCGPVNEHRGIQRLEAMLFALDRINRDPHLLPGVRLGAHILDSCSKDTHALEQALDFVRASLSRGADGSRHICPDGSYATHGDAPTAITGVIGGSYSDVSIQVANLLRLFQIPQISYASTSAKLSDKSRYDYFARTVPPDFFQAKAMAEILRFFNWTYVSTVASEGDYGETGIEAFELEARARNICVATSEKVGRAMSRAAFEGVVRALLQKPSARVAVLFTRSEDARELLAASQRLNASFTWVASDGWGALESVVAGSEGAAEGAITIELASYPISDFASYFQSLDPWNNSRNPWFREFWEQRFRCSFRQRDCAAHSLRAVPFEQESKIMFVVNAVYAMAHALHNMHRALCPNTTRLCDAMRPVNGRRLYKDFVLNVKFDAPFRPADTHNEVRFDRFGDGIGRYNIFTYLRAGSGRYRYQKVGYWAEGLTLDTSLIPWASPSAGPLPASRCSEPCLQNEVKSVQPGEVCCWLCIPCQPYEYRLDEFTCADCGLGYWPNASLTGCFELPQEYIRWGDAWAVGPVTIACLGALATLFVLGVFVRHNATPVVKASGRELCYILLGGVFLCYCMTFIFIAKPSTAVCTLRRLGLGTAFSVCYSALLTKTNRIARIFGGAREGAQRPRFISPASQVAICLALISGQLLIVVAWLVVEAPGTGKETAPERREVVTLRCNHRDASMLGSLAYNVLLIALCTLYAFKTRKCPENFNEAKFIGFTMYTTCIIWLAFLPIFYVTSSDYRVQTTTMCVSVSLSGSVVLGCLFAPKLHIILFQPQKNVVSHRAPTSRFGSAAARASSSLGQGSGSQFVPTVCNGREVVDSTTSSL
UniProt Q12791: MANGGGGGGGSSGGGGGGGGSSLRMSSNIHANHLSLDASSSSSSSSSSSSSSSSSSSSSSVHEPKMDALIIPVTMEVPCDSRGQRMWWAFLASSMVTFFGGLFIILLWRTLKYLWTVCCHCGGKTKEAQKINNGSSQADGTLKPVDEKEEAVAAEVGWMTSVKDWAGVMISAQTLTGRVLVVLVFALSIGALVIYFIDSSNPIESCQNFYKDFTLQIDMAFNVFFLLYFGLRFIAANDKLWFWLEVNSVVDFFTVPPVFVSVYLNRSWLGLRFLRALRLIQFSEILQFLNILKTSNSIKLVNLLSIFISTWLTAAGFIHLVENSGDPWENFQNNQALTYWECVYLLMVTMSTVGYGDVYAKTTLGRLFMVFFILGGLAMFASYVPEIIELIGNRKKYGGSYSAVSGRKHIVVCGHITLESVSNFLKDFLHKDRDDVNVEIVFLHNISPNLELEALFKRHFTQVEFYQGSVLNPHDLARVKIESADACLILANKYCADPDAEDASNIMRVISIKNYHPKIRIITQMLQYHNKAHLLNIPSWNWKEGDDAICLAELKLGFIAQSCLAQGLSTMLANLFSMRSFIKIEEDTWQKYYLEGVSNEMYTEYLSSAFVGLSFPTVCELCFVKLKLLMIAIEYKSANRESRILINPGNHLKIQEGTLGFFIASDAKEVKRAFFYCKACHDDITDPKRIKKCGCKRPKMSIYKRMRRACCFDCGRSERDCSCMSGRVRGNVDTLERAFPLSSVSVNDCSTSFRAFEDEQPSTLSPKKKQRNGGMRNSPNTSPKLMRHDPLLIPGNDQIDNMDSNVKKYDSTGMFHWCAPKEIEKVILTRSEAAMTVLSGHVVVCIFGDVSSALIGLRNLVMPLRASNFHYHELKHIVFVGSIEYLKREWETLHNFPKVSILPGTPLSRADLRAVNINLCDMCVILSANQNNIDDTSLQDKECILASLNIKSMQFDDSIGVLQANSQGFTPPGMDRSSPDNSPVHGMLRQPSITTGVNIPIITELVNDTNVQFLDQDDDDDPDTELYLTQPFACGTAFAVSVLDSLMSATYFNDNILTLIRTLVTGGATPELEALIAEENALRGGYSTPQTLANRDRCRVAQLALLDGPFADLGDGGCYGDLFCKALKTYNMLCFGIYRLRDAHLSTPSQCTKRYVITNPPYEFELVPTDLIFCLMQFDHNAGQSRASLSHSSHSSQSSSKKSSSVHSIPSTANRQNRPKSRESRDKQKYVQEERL
UniProt P03454, residues 18-565: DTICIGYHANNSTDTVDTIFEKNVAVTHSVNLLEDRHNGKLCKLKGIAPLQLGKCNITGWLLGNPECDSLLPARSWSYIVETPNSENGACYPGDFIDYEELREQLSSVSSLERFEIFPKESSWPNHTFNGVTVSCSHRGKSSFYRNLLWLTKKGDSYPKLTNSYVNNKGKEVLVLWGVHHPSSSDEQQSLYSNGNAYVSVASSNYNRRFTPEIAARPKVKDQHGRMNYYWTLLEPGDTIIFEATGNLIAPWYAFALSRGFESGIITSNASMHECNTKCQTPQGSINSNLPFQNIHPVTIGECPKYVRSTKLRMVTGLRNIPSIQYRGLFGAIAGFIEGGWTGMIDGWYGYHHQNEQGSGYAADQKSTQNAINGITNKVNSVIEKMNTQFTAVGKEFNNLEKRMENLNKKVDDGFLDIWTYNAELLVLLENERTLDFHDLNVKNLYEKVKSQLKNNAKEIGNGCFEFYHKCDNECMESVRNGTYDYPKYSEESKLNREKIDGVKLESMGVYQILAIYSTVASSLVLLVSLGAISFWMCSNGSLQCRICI

Target: mGluR2 (metabotropic glutamate receptor 2) with a Flag tag (UniProt Q14416)
Test: co-IP

KCa1.1–Myc (potassium calcium-activated channel subfamily M alpha 1) (from UniProt Q12791 1-1236)
binding: binds

HA of H1N1 virus (A/WSN/1933) with a V5 tag (from UniProt P03454)
binding: binds
